# PubChem BioAssay AID1159584 – Peter MacCallum Cancer Centre | 2016
# Screen: 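Knock-downs that harm CDH1-null cells more than parental MCF10A cells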 (primary screen)
# System: human MCF10A breast epithelial cells, parental and CDH1-null
# Reagent: siRNA against human genes
# Read-out: 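ATP luminescence (CellTiter-Glo) viability per line relative to mean mock wells over all plates, and the ratio of CDH1-null to parental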
# Direction: CDH1-null / parental viability ratio: higher = CDH1-null cells survive relatively better than parental
# Shown is an unselected part of about 18,000 reagents. Further read-outs or replicates are left out here. Not stated in the record: the amount of reagent, the time to read-out.
Gene,CDH1-null / parental viability ratio
DNAJC21 (GeneID 134218),0.9
RPL18 (GeneID 6141),2.73
H2AC19 (GeneID 723790),0.65
CDK5R1 (GeneID 8851),0.91
DOK4 (GeneID 55715),1.42
ADGRL2 (GeneID 23266),0.79
WDR89 (GeneID 112840),1.1
AFF4 (GeneID 27125),0.91
SRGAP1 (GeneID 57522),1.3
SFT2D1 (GeneID 113402),1.25
FLII (GeneID 2314),0.87
NAXE (GeneID 128240),1.28
MRPL9 (GeneID 65005),0.86
SLC66A2 (GeneID 80148),1.15
ZNF823 (GeneID 55552),1.23
ZNF334 (GeneID 55713),1.14
SLC10A1 (GeneID 6554),0.97
ZBED10P (GeneID 113763),0.71
SERPINB4 (GeneID 6318),0.73
SLAMF7 (GeneID 57823),0.83
EPB41L4B (GeneID 54566),0.97
COL6A5 (GeneID 256076),0.81
PBX3 (GeneID 5090),0.88
BCL2L13 (GeneID 23786),0.98
ACVRL1 (GeneID 94),0.93
GNB4 (GeneID 59345),0.88
PRL (GeneID 5617),1.04
DNMBP (GeneID 23268),1.09
VSIG4 (GeneID 11326),0.79
NDUFB5 (GeneID 4711),0.98
TAX1BP3 (GeneID 30851),1.38
CSNK1G2-AS1 (GeneID 255193),0.94
PSMB6 (GeneID 5694),1.42
ZNF695 (GeneID 57116),0.86
NCEH1 (GeneID 57552),1
AARD (GeneID 441376),1.05
OR6K3 (GeneID 391114),0.9
STIM1 (GeneID 6786),1.1
OSBPL3 (GeneID 26031),0.79
STK17A (GeneID 9263),0.73
ANKRD40 (GeneID 91369),1.36
OR6N2 (GeneID 81442),1.05
ENPP6 (GeneID 133121),0.66
PCGF2 (GeneID 7703),0.84
RANBP9 (GeneID 10048),0.87
RGR (GeneID 5995),0.74
MUTYH (GeneID 4595),0.98
WHRN (GeneID 25861),1.3
FBXL15 (GeneID 79176),1.2
KLHL10 (GeneID 317719),0.75
SWAP70 (GeneID 23075),1.32
ATP6AP2 (GeneID 10159),1.28
SLIRP-OT1 (GeneID 283579),0.85
KCNT1 (GeneID 57582),1.55
ASIC5 (GeneID 51802),1.22
DUOXA2 (GeneID 405753),0.76
ARHGEF16 (GeneID 27237),0.92
OR5D16 (GeneID 390144),1.16
CPSF2 (GeneID 53981),1.17
RAD50 (GeneID 10111),1.17
BSCL2 (GeneID 26580),0.77
IRAG2 (GeneID 4033),0.96
ASB10 (GeneID 136371),1.04
ITIH2 (GeneID 3698),0.71
PDZRN4 (GeneID 29951),0.94
PRDM2 (GeneID 7799),1.04
MANEA (GeneID 79694),0.9
TMTC2 (GeneID 160335),1

Entries above whose target name starts with P or p:
Gene,CDH1-null / parental viability ratio
PBX3 (GeneID 5090),0.88
PRL (GeneID 5617),1.04
PSMB6 (GeneID 5694),1.42
PCGF2 (GeneID 7703),0.84
PDZRN4 (GeneID 29951),0.94
PRDM2 (GeneID 7799),1.04
